Experimental data taken from PubChem BioAssay AID504467 (National Center for Advancing Translational Sciences (NCATS), 2011).
Screen size: about 330,000 compounds; about 7,700 (2.3%) were called active. Inconclusive means that the source gave no clear call. Such entries were picked first, then a sample of the others. The call rests on the fitted dose curve; in most records, active means well fitted inhibition curve with a large enough effect; inconclusive means small, poorly fitted or top-dose-only effect, or effect the other way; inactive means flat fitted curve, though single readings scatter. Potencies of inconclusive entries are doubtful fits and often do not repeat.

Experiment: qHTS screen for small molecules that inhibit ELG1-dependent DNA repair in human embryonic kidney (HEK293T) cells expressing luciferase-tagged ELG1; further: nearly all actives have a fitted effect of over 55% in size
Settings: HEK293T ELG1-luciferase reporter, luminescence, 16 h, DNA damage induced by 5-fluorouridine; activity change, negative = inhibition: at 46.1 µM (top of the series)
Summary of the method: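 Overnight (16 hr) co-exposure of 2,000 cells/well to 5-fluorouridine and compound at 37 °C preceded detection. Luciferase was quantified via ONE-Glo luminescence; loss of signal denotes inhibition.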
On the % scale 0 is the no-effect control and ±100 the full control effect; potency means the concentration at half of the fitted maximal effect.

Row | Structure (SMILES) | Potency | activity change, negative = inhibition
1 | O=C(O)C1CC=C(Cl)CC1C(=O)NCc1ccccc1 (stereo not drawn) | inconclusive: 29.1 µM [activator, single point] | 
2 | Cc1nn(C)c(Cl)c1CN1CCCC(C(=O)Nc2cccc(-n3cccn3)c2)C1 (stereo not drawn) | active: 16.4 µM | 
3 | O=[N+]([O-])c1ccccc1S(=O)(=O)Oc1ccccc1/C=N/n1cnnc1 |  | inactive: -8.17%
4 | COc1cccc(/C=N/n2nnnc2N)c1O | inconclusive: 5.8 µM [activator, partial curve] | 
5 | O=C(NNc1cc(N2CCOCC2)nc(N2CCOCC2)n1)C12CC3CC(CC(C3)C1)C2 |  | inactive: -2.69%
6 | COC(=O)c1c(-c2ccc(OC)cc2)sc2ccc(N3CCOCC3)cc12 | inconclusive: 16.4 µM [activator, single point] | 
7 | COc1ccc(C(=O)NNC(=O)c2ccccc2[N+](=O)[O-])cc1 | inconclusive: 14.6 µM [activator, partial curve] | 
8 | CC1=CC(C)(C)Nc2cc(C)c(C)cc21 |  | inactive: 11.5%
9 | COc1cc(C(=O)OCc2cc(=O)n3ccsc3n2)ccc1OC(C)C | inconclusive: 29.1 µM [inhibitor, single point] | 
10 | O=C(C1=C[C@H](c2ccccc2)C[C@H](OCc2ccc(CO)cc2)O1)N1CCN(Cc2ccc3c(c2)OCO3)CC1 | active: 8.2 µM | 
11 | CCOC(=O)c1cnn(-c2cccc(Cl)c2)c1N | inconclusive: 20.6 µM [activator, single point] | 
12 | COc1ccc(OC)c(Nc2ncnc3c2cnn3-c2cccc(C)c2)c1 | inconclusive: 4.11 µM [inhibitor, full curve] | 
13 | CN(Cc1ccccc1N1CCCC1)C(=O)c1cc2ccccc2o1 | inconclusive: 13 µM [inhibitor, partial curve, poor fit] | 
14 | CNC(=S)N/N=C(\C)c1ccc(-n2ccnc2)cc1 | inconclusive: 23.1 µM [activator, single point] | 
15 | Cc1ccc(SCC(=O)Nc2ccc(N3CCN(C)CC3)c(F)c2)cc1 | inconclusive: 16.4 µM [activator, partial curve] | 
16 | CC/C(Cc1ccccc1)=N\NC(=O)c1cc([N+](=O)[O-])cc([N+](=O)[O-])c1 |  | inactive: -8.12%
17 | CCC(=NCCc1c(C)[nH]c2ccc(C)cc12)C1=C(O)CC(c2ccccc2)CC1=O (stereo not drawn) | inconclusive: 32.6 µM [inhibitor, partial curve, poor fit] | 
18 | Cc1ccc(NCCC#N)cc1C | inconclusive: 9.2 µM [activator, partial curve] | 
19 | COc1cccc(C(=O)Nc2cccnc2)c1 | inconclusive: 18.4 µM [activator, single point] | 
20 | Nc1ccc(C(=O)OCc2nc3cc4ccccc4cc3[nH]2)cc1 | inconclusive: 6.51 µM [activator, partial curve, poor fit] | 
21 | COC(=O)c1cc(NC(=O)C23CCC(C)(C(=O)O2)C3(C)C)cc(C(=O)OC)c1 (stereo not drawn) | inconclusive: 18.4 µM [inhibitor, single point] | 
22 | O=C(OCc1ccccc1)C1=NNC2C(=O)N(c3ccc(Br)cc3)C(=O)C12 (stereo not drawn) |  | inactive: -2.56%
23 | Cc1cc(N(CCO)CCO)ccc1C(c1ccc(N(CCO)CCO)cc1C)c1ccccc1Cl |  | inactive: 2.08%

An excerpt of these results, as a markdown table.

| Row | Structure (SMILES) | Potency | activity change, negative = inhibition |
| --- | --- | --- | --- |
| 6 | COC(=O)c1c(-c2ccc(OC)cc2)sc2ccc(N3CCOCC3)cc12 | inconclusive: 16.4 µM [activator, single point] |  |
| 7 | COc1ccc(C(=O)NNC(=O)c2ccccc2[N+](=O)[O-])cc1 | inconclusive: 14.6 µM [activator, partial curve] |  |
| 8 | CC1=CC(C)(C)Nc2cc(C)c(C)cc21 |  | inactive: 11.5% |
| 9 | COc1cc(C(=O)OCc2cc(=O)n3ccsc3n2)ccc1OC(C)C | inconclusive: 29.1 µM [inhibitor, single point] |  |
| 10 | O=C(C1=C[C@H](c2ccccc2)C[C@H](OCc2ccc(CO)cc2)O1)N1CCN(Cc2ccc3c(c2)OCO3)CC1 | active: 8.2 µM |  |
| 11 | CCOC(=O)c1cnn(-c2cccc(Cl)c2)c1N | inconclusive: 20.6 µM [activator, single point] |  |
| 12 | COc1ccc(OC)c(Nc2ncnc3c2cnn3-c2cccc(C)c2)c1 | inconclusive: 4.11 µM [inhibitor, full curve] |  |
| 13 | CN(Cc1ccccc1N1CCCC1)C(=O)c1cc2ccccc2o1 | inconclusive: 13 µM [inhibitor, partial curve, poor fit] |  |
| 14 | CNC(=S)N/N=C(\C)c1ccc(-n2ccnc2)cc1 | inconclusive: 23.1 µM [activator, single point] |  |
| 15 | Cc1ccc(SCC(=O)Nc2ccc(N3CCN(C)CC3)c(F)c2)cc1 | inconclusive: 16.4 µM [activator, partial curve] |  |
| 16 | CC/C(Cc1ccccc1)=N\NC(=O)c1cc([N+](=O)[O-])cc([N+](=O)[O-])c1 |  | inactive: -8.12% |
| 17 | CCC(=NCCc1c(C)[nH]c2ccc(C)cc12)C1=C(O)CC(c2ccccc2)CC1=O (stereo not drawn) | inconclusive: 32.6 µM [inhibitor, partial curve, poor fit] |  |
| 18 | Cc1ccc(NCCC#N)cc1C | inconclusive: 9.2 µM [activator, partial curve] |  |
| 19 | COc1cccc(C(=O)Nc2cccnc2)c1 | inconclusive: 18.4 µM [activator, single point] |  |
| 20 | Nc1ccc(C(=O)OCc2nc3cc4ccccc4cc3[nH]2)cc1 | inconclusive: 6.51 µM [activator, partial curve, poor fit] |  |
| 21 | COC(=O)c1cc(NC(=O)C23CCC(C)(C(=O)O2)C3(C)C)cc(C(=O)OC)c1 (stereo not drawn) | inconclusive: 18.4 µM [inhibitor, single point] |  |

Remaining list, next part

Row | Structure (SMILES) | Potency | activity change, negative = inhibition
24 | CCOC(=O)c1c(CSc2ccccc2)n(C)c2ccc(O)c(CN3CCOCC3)c12 | inconclusive: 23.1 µM [inhibitor, single point] | 
25 | CC(=O)c1ccc(N2CCN(C(=O)/C=C/c3ccc(S(=O)(=O)NCc4ccco4)cc3)CC2)cc1 | active: 7.3 µM | 
26 | COc1ccccc1NC(=S)N/N=C1\CC(C)(C)Oc2ccc(O)cc21 | inconclusive: 13 µM [inhibitor, partial curve] | 
27 | COc1cc(/C=C2\SC(=S)N(c3cccnc3)C2=O)ccc1O |  | inactive: 7.87%
28 | CCC1S/C(=C(\C#N)C(=O)NCc2ccco2)N(c2ccc(F)cc2)C1=O (stereo not drawn) |  | inactive: 7%
29 | COc1ccc(C2CC(c3ccncc3)=NN2c2ccc(S(N)(=O)=O)cc2)cc1 (stereo not drawn) | inconclusive: 10.3 µM [activator, partial curve] | 
30 | FC(F)(F)c1cnc(Oc2ccc(-c3nnco3)cc2)c(Cl)c1 | inconclusive: 29.1 µM [inhibitor, single point] | 
31 | CCS(=O)(=O)Nc1ccc(C2=NN(C(C)=O)C(c3cccs3)C2)cc1 (stereo not drawn) | inconclusive: 3.26 µM [inhibitor, partial curve, poor fit] | 
32 | CN(C)c1ccc(C(CC(=O)O)C(=O)O)cc1 (stereo not drawn) | inconclusive: 0.73 µM [inhibitor, partial curve, poor fit] | 
33 | CCOc1ccc2[nH]c3c(N4CCN(C(=O)c5ccco5)CC4)ncnc3c2c1 |  | inactive: -10.7%
34 | C/C(=N\Nc1nc(N)cc(Cl)n1)c1ccc(F)cc1 | inconclusive: 29.1 µM [activator, single point] | 
35 | COc1ccc(OCCSc2nnc(CCNC(=O)c3ccc(Cl)c(Cl)c3)n2C)cc1 | inconclusive: 18.4 µM [inhibitor, single point] | 
36 | S=C(NCCN1CCOCC1)Nc1ccc(Cl)c(Cl)c1 |  | inactive: -4.28%
37 | COc1cccc(N2CCN(c3cnc4ccccc4n3)CC2)c1 | inconclusive: 2.31 µM [activator, partial curve, poor fit] | 
38 | CN(C)C(=O)CCc1ccc2c3c([nH]c2c1)[C@]1(CCC2CCCC2)[C@@H](C(=O)N2CCOCC2)C[C@H](CC(=O)NCCC2=CCCCC2)C(=O)N1CC3 |  | inactive: -16%
39 | COc1ccc(S(=O)(=O)N2CCC(O)(c3ccc(Cl)cc3)CC2)cc1 | inconclusive: 18.4 µM [inhibitor, partial curve] | 
40 | COc1cc(C(=O)Nc2ccccc2N2CCCCC2)cc(OC)c1OC | active: 20.6 µM | 
41 | COc1ccccc1-c1noc(-c2ccncc2)n1 | inconclusive: 18.4 µM [activator, partial curve] | 
42 | CCC(C)(C)c1ccc(OCCCC[n+]2cccc(C)c2)c(C(C)(C)CC)c1 | active: 7.3 µM | 
43 | O=C1CCc2cc(S(=O)(=O)Nc3cccc(F)c3)cc3c2N1CC3 |  | inactive: 22.4%
44 | COc1cc(/C=N/NC(=O)c2cc(-c3cccn3C)n[nH]2)cc(OC)c1OC | inconclusive: 29.1 µM [inhibitor, partial curve, poor fit] | 
45 | C=CCNc1oc(-c2cccc(Cl)c2)nc1C#N | inconclusive: 23.1 µM [activator, single point] | 
46 | CCC(=O)C1CCCN(C(=O)CCc2nnc(-c3ccc(C(C)=O)s3)o2)C1 (stereo not drawn) | inconclusive: 20.6 µM [activator, partial curve] | 

Row | Structure (SMILES) | Potency | activity change, negative = inhibition
47 | O=C(N=Nc1c(O)[nH]c2ccccc12)c1ccccc1NS(=O)(=O)c1cccs1 |  | inactive: -1.68%
48 | CNC(=O)c1cc2ccccc2o1 | inconclusive: 29.1 µM [activator, partial curve, poor fit] | 
49 | COc1ccccc1NS(=O)(=O)c1cccc(C(=O)N/N=C/c2cn(-c3ccccc3)nc2-c2ccccc2)c1 | inconclusive: 0.259 µM [inhibitor, full curve] | 
50 | CSc1ccccc1C(=O)Nc1nc2ccccc2[nH]1 | inconclusive: 16.4 µM [activator, partial curve] | 
51 | COc1ccc(C(=O)Nc2cccc(NC(C)=O)c2)cc1OC | inconclusive: 29.1 µM [activator, partial curve, poor fit] | 
52 | Cc1csc(NC(=O)CSc2nnc(-c3ccncc3)o2)n1 | inconclusive: 16.4 µM [activator, partial curve] | 
53 | Cc1ccc(C)c(NC(=O)CN(C)C(=O)c2ccc(S(=O)(=O)N3CCCCCC3)cc2)c1 |  | inactive: -6.82%
54 | O=C(c1ccc([N+](=O)[O-])cc1)n1nc(-c2ccccc2)nc1NCc1ccccc1 | inconclusive: 29.1 µM [activator, single point] | 
55 | CCOc1cc(C2C(C(=O)OC)=C(C)N=C3SC(C)C(=O)N32)ccc1OC(C)=O (stereo not drawn) | inconclusive: 32.6 µM [activator, partial curve, poor fit] | 
56 | O=C(NCc1ccncc1)c1nnc(Cc2c(F)cccc2Cl)o1 | inconclusive: 25.9 µM [inhibitor, partial curve, poor fit] | 
57 | Cc1ccc(C)c(OCCn2c(=O)c3c(ncn3C3CCCC3)n(Cc3ccccc3)c2=O)c1 | active: 20.6 µM | 
58 | COc1cccc(C(=O)N2CCN(C(=O)COc3ccc4ccccc4c3)CC2)c1 | inconclusive: 29.1 µM [inhibitor, single point] | 
59 | COc1ccc(CC(=O)NNC(=O)c2ccco2)cc1 | inconclusive: 11.6 µM [activator, partial curve, poor fit] | 
60 | COc1cc(C2C(C#N)=C(N)Oc3cc4c(cc32)OCO4)cc(OC)c1OC (stereo not drawn) | inconclusive: 1.64 µM [activator, partial curve, poor fit] | 
61 | O=C(Nc1ccnn1C1CCN(Cc2ccn[nH]2)CC1)c1ccccc1 |  | inactive: -0.763%
62 | Cc1cccc(NC(=O)CSc2nccn2Cc2ccco2)c1 | inconclusive: 4.61 µM [activator, partial curve] | 
63 | Cc1ccc(S(=O)(=O)N2C(=O)[C@@H]3Cc4ccccc4CN3C2=O)cc1 |  | inactive: 1.72%
64 | Cc1c(C)c2ccc(OC(C)C(=O)N3CC[C@@]4(O)CCCC[C@H]4C3)cc2oc1=O (stereo partly drawn) |  | inactive: 23.6%
65 | CCOc1cccc(Nc2cc3n(c(=O)n2)CCc2cc(OC)c(OC)cc2-3)c1 | inconclusive: 20.6 µM [inhibitor, partial curve] | 
66 | Clc1ccc(/C=C/c2ncc[nH]2)c(Cl)c1 | inconclusive: 9.2 µM [activator, partial curve] | 
67 | CCOc1ccc(C(=O)NCC2(c3ccccc3)CCOCC2)cc1 | inconclusive: 29.1 µM [inhibitor, single point] | 
68 | CCOc1ccc2nc(NC(=O)CSc3nc4ccccc4c(=O)n3Cc3ccco3)sc2c1 | inconclusive: 4.47 µM [inhibitor, full curve, poor fit] | 
